Laboratory results from patent publication US20210179707A1.

Target: human PAR4 on isolated human platelets (human)
Assay: flow cytometry on isolated human platelets

B1: 5A.RC3 (antibody, IgG2a, V domains shown)
VH: QVQLVESGGGVVQPGRSLRLSCAASGFTLSNYGMHWVRQAPGKGLEWVSVIWYDGSNKHYADSVKGRFTISRDNSKNTLYLQMNSLRAEDTAVYYCARESIVEVLPPFDYWGQGTLVTVSS
VL: KIVLTQSPGTLSLSPGERVTLSCRASQRVRNNYLAWFQQKPGQAPRLFIYGASSRATGIPDRFSGSGSGTDFIFTISRLEPEDFAVYYCQQYGNSYTFGQGTKLEIK
**Q.** With B1 as the binder, how does the binding read?
**A.** binds

Results are given in words; binding and its absence hold for the method and conditions named. Binding calls can cover weak binding; strength is not graded here.
